Measurements from the supplement of paper PMC12578635.
Some of the results follow. Rule as the data show it: active = 150% or more and inactive = the rest. Most values come without repeats; read them as rough.

System: Staphylococcus aureus JE2-lux inside RAW 264.7 macrophages
Assay: intracellular bacterial bioluminescence relative to DMSO vehicle; higher = higher intracellular bacterial metabolic activity
Settings: 10 µM; treatment time 4 h; gentamicin 50 µg/ml
Experimental: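 RAW 264.7 macrophages infected with bioluminescent MRSA JE2-lux (MOI 100) were dispensed into 384-well plates with 10 µM compound in the presence of 50 µg/ml gentamicin. After 4 h at 37 °C, bacterial bioluminescence (a proxy for intracellular bacterial metabolic activity) and host cell viability (CellTiter-Fluor) were read and normalised to 0.1% DMSO vehicle controls. Single-pass screen of the UNC CICBDD kinase-targeted library (>4,700 compounds).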

Intracellular bacterial bioluminescence, inactive:
CN(C)CCN(C(=O)C1CC(=O)Nc2ccccc21)C1CCCCC1 (stereo unspecified) 118%
CCOc1ccc(-c2c(C#N)c(N)nc(SCC(=O)c3ccccc3)c2C#N)cc1 58.3%
Cc1oc2ncnc(OC3CCN4Cc5ccccc5N=C34)c2c1C (stereo unspecified) 90.6%
CC1CC(NC(=O)C(=O)c2c[nH]c3ccccc23)CC(C)(C)C1 (stereo unspecified) 102%
Cc1cc(SCC(=O)OCc2ccccc2)nc(=O)[nH]1 112%
COC(=O)c1ccc(NC(=O)CSc2ncnc3sc4c(c23)CCC4)cc1 64.5%
O=C(NC(=S)Nc1ccc(S(=O)(=O)N2CCc3ccccc32)cc1)c1cccs1 85.3%
Cc1ccc(C)c(S(=O)(=O)Nc2cc(Sc3nc[nH]n3)c(O)c3ccccc23)c1 126%
CN(C)CCCN1C(=O)C(O)=C(C(=O)c2ccncc2)C1c1cccc(F)c1 (stereo unspecified) 99.1%
COc1ccc(N2CCn3c(nc4ccccc43)C2)cc1NC(=O)Nc1ccccc1 49.5%
O=C(c1cccs1)N1CCN=C1SCc1ccc(Cl)cc1 39.9%
O=C(CC1Sc2ccc(C(F)(F)F)cc2NC1=O)Nc1ccc(OC(F)F)cc1 (stereo unspecified) 38.8%
CCOCCCNC(=O)Cc1csc2nc(-c3ccc(F)cc3)cn12 38.9%
O=C(NCCCSc1nc2ccccc2s1)Nc1ncccn1 53.8%
CCCn1/c(=N/C(=O)c2c(F)cccc2F)sc2cc(S(C)(=O)=O)ccc21 110%
CC(=O)Nc1ccc(S(=O)(=O)Nc2ccc(-c3cn4ccc(C)nc4n3)cc2)cc1 105%
CCCCCC(=O)n1nc(-c2ccc(Cl)cc2)nc1N 109%
Cc1n[nH]c2c1C(c1ccc(OCc3ccccc3)cc1)C(C#N)=C(N)O2 (stereo unspecified) 106%
COc1ccc(S(=O)(=O)c2cn(CC(=O)Nc3cc(C)ccc3C)c3ccccc3c2=O)cc1 96%
CC(C)=CCSc1nc2sc3c(c2c(=O)[nH]1)CCCC3 127%
CCOc1ccccc1CNC(=O)c1c(-c2ccccc2)nnc2ccc(C)cc12 62%
Cc1nn(-c2ccccc2)c2c1C(c1ccc([N+](=O)[O-])cc1)C(C#N)=C(N)O2 (stereo unspecified) 86.1%
Cn1cccc1-c1cc2n(n1)CCC(=O)N2CC(=O)NCc1cccnc1 93.7%
Cc1oc(-c2ccno2)cc1S(=O)(=O)NCc1ccc(Cl)cc1 96.5%
COCCNc1ncnc2c1c(C)c(C)n2-c1ccc(F)c(F)c1 42.5%
COc1ccc(-c2ccc(=O)n(CCNC(=O)COc3ccccc3)n2)cc1 107%

Two compounds drawn at random from those above, as already listed:
Intracellular bacterial bioluminescence, inactive:
COC(=O)c1ccc(NC(=O)CSc2ncnc3sc4c(c23)CCC4)cc1 64.5%
CCCCCC(=O)n1nc(-c2ccc(Cl)cc2)nc1N 109%
